Experiment [1] deals with T1, tissue transglutaminase (human (endogenous in SW620)) (UniProt P21980).
T1 sequence: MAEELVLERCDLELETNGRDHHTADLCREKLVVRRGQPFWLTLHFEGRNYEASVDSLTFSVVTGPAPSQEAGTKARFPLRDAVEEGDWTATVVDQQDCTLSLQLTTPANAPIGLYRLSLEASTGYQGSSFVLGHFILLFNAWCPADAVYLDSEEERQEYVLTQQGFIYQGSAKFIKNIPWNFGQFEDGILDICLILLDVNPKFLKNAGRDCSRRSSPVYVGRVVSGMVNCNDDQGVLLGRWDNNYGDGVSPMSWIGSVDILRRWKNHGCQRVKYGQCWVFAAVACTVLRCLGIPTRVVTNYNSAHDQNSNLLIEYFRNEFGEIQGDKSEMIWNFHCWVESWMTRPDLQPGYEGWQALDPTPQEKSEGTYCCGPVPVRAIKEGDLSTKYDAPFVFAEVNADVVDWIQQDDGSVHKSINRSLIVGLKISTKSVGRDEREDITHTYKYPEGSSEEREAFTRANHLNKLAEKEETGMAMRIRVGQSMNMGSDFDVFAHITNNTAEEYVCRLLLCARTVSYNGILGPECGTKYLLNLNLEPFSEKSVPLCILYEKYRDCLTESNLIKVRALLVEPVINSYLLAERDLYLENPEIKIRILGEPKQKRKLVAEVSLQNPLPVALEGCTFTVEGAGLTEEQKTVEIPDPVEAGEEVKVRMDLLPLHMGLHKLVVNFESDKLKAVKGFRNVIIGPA
Briefly: co-IP; SW620 whole cell lysates (600 μg), 0.5 μg primary antibody, protein A or G Sepharose, 4°C; co-IP buffer 50 mM Tris-HCl, 0.25% sodium deoxycholate, 150 mM NaCl, 500 μM TG inhibitor R283; Western blot of the partner; cells treated with DMSO (control), 1 μM 1-155 or transduced with TG2 shRNA.

By UniProt entry, the sequences of proteins in these tests, tags left out. Residues count along the entry.
UniProt P35222: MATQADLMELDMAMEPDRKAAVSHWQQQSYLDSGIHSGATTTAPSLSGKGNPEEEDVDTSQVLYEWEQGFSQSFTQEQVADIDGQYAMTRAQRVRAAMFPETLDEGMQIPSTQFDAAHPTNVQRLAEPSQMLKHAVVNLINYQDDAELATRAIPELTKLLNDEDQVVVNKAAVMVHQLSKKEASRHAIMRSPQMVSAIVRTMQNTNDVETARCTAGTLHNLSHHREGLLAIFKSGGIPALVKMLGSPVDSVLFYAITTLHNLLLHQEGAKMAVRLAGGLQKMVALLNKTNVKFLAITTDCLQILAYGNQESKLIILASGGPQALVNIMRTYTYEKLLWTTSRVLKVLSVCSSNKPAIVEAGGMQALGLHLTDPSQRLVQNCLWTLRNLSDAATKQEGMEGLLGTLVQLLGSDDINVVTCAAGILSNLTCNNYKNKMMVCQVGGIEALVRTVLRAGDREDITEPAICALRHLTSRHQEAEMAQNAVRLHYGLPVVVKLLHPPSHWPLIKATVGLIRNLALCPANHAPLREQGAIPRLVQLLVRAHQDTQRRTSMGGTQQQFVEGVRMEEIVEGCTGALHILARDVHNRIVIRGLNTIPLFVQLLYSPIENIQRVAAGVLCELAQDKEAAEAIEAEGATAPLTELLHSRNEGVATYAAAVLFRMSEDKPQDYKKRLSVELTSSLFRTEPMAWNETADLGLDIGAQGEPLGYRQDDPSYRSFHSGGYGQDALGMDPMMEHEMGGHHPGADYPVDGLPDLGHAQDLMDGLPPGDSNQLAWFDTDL
UniProt O75197, residues 32-1615: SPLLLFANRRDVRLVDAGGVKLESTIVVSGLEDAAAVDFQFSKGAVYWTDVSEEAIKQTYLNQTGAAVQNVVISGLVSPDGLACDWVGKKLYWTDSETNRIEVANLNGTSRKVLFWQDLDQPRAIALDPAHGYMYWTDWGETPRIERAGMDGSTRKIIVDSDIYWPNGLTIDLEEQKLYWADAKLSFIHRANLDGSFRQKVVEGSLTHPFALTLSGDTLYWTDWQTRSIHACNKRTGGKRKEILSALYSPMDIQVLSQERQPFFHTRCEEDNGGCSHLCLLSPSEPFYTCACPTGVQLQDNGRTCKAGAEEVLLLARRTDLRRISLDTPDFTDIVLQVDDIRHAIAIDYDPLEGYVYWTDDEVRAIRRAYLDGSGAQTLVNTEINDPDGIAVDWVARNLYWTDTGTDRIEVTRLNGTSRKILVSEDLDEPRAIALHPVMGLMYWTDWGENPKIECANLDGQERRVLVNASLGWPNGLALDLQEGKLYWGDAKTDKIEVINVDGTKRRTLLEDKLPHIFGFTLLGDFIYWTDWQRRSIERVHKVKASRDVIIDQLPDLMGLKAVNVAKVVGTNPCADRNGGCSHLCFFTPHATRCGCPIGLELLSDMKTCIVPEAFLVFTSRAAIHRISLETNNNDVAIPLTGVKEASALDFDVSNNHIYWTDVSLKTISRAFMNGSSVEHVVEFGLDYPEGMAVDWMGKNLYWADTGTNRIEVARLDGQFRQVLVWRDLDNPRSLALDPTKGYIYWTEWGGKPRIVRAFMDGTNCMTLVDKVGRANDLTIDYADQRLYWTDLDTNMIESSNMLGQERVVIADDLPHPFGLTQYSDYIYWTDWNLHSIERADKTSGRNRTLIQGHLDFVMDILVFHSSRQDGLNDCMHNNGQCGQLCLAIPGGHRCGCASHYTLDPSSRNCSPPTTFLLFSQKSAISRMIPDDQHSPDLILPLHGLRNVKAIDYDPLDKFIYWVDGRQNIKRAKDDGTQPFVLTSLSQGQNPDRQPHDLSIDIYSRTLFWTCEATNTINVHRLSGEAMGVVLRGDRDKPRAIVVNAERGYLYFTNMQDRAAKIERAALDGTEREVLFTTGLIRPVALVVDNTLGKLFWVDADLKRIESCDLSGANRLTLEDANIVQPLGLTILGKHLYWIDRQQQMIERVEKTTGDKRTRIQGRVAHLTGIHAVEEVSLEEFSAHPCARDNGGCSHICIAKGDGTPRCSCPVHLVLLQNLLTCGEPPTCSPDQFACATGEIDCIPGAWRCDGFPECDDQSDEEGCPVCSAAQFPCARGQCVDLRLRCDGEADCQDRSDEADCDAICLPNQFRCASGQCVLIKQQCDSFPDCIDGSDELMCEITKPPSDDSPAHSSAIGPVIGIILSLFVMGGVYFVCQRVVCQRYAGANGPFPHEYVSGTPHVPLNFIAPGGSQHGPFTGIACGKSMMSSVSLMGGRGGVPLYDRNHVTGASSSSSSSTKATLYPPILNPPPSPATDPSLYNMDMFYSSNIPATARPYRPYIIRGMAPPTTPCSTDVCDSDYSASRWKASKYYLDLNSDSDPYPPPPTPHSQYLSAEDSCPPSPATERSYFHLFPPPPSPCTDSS

In experiment [2] the target is T1, tissue transglutaminase (human (endogenous in SW620)). Briefly: condition: only cells treated with TG2 inhibitor 1-155 (1 μM); co-IP; as a1, SW620 cells treated with the TG2 selective inhibitor 1-155 (1 μM) before lysis; TG2 co-IP blotted for β-catenin and β-catenin co-IP blotted for TG2.
Experiment [3] addresses β-catenin (human (endogenous in SW620)) (UniProt P35222). Briefly: co-IP; SW620 whole cell lysates (600 μg), 0.5 μg primary antibody, protein A or G Sepharose, 4°C; co-IP buffer 50 mM Tris-HCl, 0.25% sodium deoxycholate, 150 mM NaCl, 500 μM TG inhibitor R283; Western blot of the partner; cells treated with DMSO (control), 1 μM 1-155 or transduced with TG2 shRNA. On the technique in general: A western blot detects proteins with antibodies after separation by electrophoresis.

The values that follow come from paper PMC5386741.

No constants are given. Whether binding was seen depends on the method and setting. In cells and extracts the contact can be indirect. Some binding calls cover weakened binding; strength is not graded here.

Take “Low-density lipoprotein receptor-related protein 5 (from UniProt O75197 32-1615)”: the binding entry in experiment [1] is recorded as “binds”. β-catenin (from UniProt P35222 1-781): the binding result was “binds” in experiment [1] and “no binding” in experiment [2].

B1: tissue transglutaminase (enzyme, UniProt P21980 1-687)
chain: MAEELVLERCDLELETNGRDHHTADLCREKLVVRRGQPFWLTLHFEGRNYEASVDSLTFSVVTGPAPSQEAGTKARFPLRDAVEEGDWTATVVDQQDCTLSLQLTTPANAPIGLYRLSLEASTGYQGSSFVLGHFILLFNAWCPADAVYLDSEEERQEYVLTQQGFIYQGSAKFIKNIPWNFGQFEDGILDICLILLDVNPKFLKNAGRDCSRRSSPVYVGRVVSGMVNCNDDQGVLLGRWDNNYGDGVSPMSWIGSVDILRRWKNHGCQRVKYGQCWVFAAVACTVLRCLGIPTRVVTNYNSAHDQNSNLLIEYFRNEFGEIQGDKSEMIWNFHCWVESWMTRPDLQPGYEGWQALDPTPQEKSEGTYCCGPVPVRAIKEGDLSTKYDAPFVFAEVNADVVDWIQQDDGSVHKSINRSLIVGLKISTKSVGRDEREDITHTYKYPEGSSEEREAFTRANHLNKLAEKEETGMAMRIRVGQSMNMGSDFDVFAHITNNTAEEYVCRLLLCARTVSYNGILGPECGTKYLLNLNLEPFSEKSVPLCILYEKYRDCLTESNLIKVRALLVEPVINSYLLAERDLYLENPEIKIRILGEPKQKRKLVAEVSLQNPLPVALEGCTFTVEGAGLTEEQKTVEIPDPVEAGEEVKVRMDLLPLHMGLHKLVVNFESDKLKAVKGFRNVIIGPA
As to B1, the binding result in experiment [3] is recorded as “binds”.
